Data on six compounds can be found in article PMC5939605, “Highly luminescent, biocompatible ytterbium(III) complexes as near-infrared fluorophores for living cell imaging” (Chemical Science, 2018).

The test system of the series is HeLa cells. Kind of series: ICP spectrometry for cellular uptake quantification. Type of series: cell-based. Particulars: HeLa cells incubated with 10 μM complex for 12 h.

Regarding `C[N+]1(C)CC2C3=NC(=C(c4c(F)c(F)c(F)c(F)c4F)c4ccc5[n]4[Yb+][n]4c(ccc4=C3c3c(F)c(F)c(F)c(F)c3F)=C(c3c(F)c(F)c(F)c(F)c3F)C3=NC(=C5c4c(F)c(F)c(F)c(F)c4F)C=C3)C2C1.[2H]C([2H])([2H])O[P](=O)(OC([2H])([2H])[2H])[Co-]([CH]1C=CC=C1)([P](=O)(OC([2H])([2H])[2H])OC([2H])([2H])[2H])[P](=O)(OC([2H])([2H])[2H])OC([2H])([2H])[2H].[I-]` (stereo not drawn) [Yb-4c], the “Concentration of Yb3+ in 1x106 cells” value is reported as 0.2578±0.0272 μg/mL.

As for `OC[C@H]1O[C@@H](Oc2ccc(C3=C4N=C(C(F)=C4F)C(c4ccc(O[C@@H]5O[C@H](CO)[C@@H](O)[C@H](O)[C@H]5O)cc4)=c4c(F)c(F)c5[n]4[Yb+][n]4c3c(F)c(F)c4C(c3ccc(O[C@@H]4O[C@H](CO)[C@@H](O)[C@H](O)[C@H]4O)cc3)=C3N=C(C(F)=C3F)C=5c3ccc(O[C@@H]4O[C@H](CO)[C@@H](O)[C@H](O)[C@H]4O)cc3)cc2)[C@H](O)[C@@H](O)[C@@H]1O.[2H]C([2H])([2H])O[P](=O)(OC([2H])([2H])[2H])[Co-]([CH]1C=CC=C1)([P](=O)(OC([2H])([2H])[2H])OC([2H])([2H])[2H])[P](=O)(OC([2H])([2H])[2H])OC([2H])([2H])[2H]` [Yb-1], the “Concentration of Yb3+ in 1x106 cells” value is 0.0259±0.0217 μg/mL.

In the case of `C[N+]1(C)CC2(F)C3=NC(=C(c4c(F)c(F)c(F)c(F)c4F)c4c(F)c(F)c5[n]4[Yb+][n]4c(c(F)c(F)c4=C3c3c(F)c(F)c(F)c(F)c3F)=C(c3c(F)c(F)c(F)c(F)c3F)C3=NC(=C5c4c(F)c(F)c(F)c(F)c4F)C(F)=C3F)C2(F)C1.[2H]C([2H])([2H])O[P](=O)(OC([2H])([2H])[2H])[Co-]([CH]1C=CC=C1)([P](=O)(OC([2H])([2H])[2H])OC([2H])([2H])[2H])[P](=O)(OC([2H])([2H])[2H])OC([2H])([2H])[2H].[I-]` (stereo not drawn) [Yb-4], the “Concentration of Yb3+ in 1x106 cells” value came to 0.1286±0.0441 μg/mL.

Take `O=C(O)c1ccc(C2=C3C=CC(=N3)C(c3c(F)c(F)c(F)c(F)c3F)=c3ccc4[n]3[Yb+][n]3c2ccc3C(c2c(F)c(F)c(F)c(F)c2F)=C2C=CC(=N2)C=4c2c(F)c(F)c(F)c(F)c2F)cc1.[2H]C([2H])([2H])O[P](=O)(OC([2H])([2H])[2H])[Co-]([CH]1C=CC=C1)([P](=O)(OC([2H])([2H])[2H])OC([2H])([2H])[2H])[P](=O)(OC([2H])([2H])[2H])OC([2H])([2H])[2H]` [Yb-2c]: the “Concentration of Yb3+ in 1x106 cells” value was determined as 0.2190±0.0549 μg/mL.

Consider `C1=CC2=C(c3ccc(C[P+](c4ccccc4)(c4ccccc4)c4ccccc4)cc3)c3ccc4[n]3[Yb+][n]3c(ccc3=C(c3ccc(C[P+](c5ccccc5)(c5ccccc5)c5ccccc5)cc3)C3=NC(=C4c4ccc(C[P+](c5ccccc5)(c5ccccc5)c5ccccc5)cc4)C=C3)=C(c3ccc(C[P+](c4ccccc4)(c4ccccc4)c4ccccc4)cc3)C1=N2.[2H]C([2H])([2H])O[P](=O)(OC([2H])([2H])[2H])[Co-]([CH]1C=CC=C1)([P](=O)(OC([2H])([2H])[2H])OC([2H])([2H])[2H])[P](=O)(OC([2H])([2H])[2H])OC([2H])([2H])[2H].[Cl-].[Cl-].[Cl-].[Cl-]` [Yb-3c], for which the “Concentration of Yb3+ in 1x106 cells” value worked out at 0.2796±0.0431 μg/mL.

As for `FC1=C(F)C2=C(c3ccc(C[P+](c4ccccc4)(c4ccccc4)c4ccccc4)cc3)c3c(F)c(F)c4[n]3[Yb+][n]3c(c(F)c(F)c3=C(c3ccc(C[P+](c5ccccc5)(c5ccccc5)c5ccccc5)cc3)C3=NC(=C4c4ccc(C[P+](c5ccccc5)(c5ccccc5)c5ccccc5)cc4)C(F)=C3F)=C(c3ccc(C[P+](c4ccccc4)(c4ccccc4)c4ccccc4)cc3)C1=N2.[2H]C([2H])([2H])O[P](=O)(OC([2H])([2H])[2H])[Co-]([CH]1C=CC=C1)([P](=O)(OC([2H])([2H])[2H])OC([2H])([2H])[2H])[P](=O)(OC([2H])([2H])[2H])OC([2H])([2H])[2H].[Cl-].[Cl-].[Cl-].[Cl-]` [Yb-3], the “Concentration of Yb3+ in 1x106 cells” value is given as 0.1542±0.0388 μg/mL.
